From paper PMC9086926 (RSC Advances, 2018)

Experiments:
[1] = Absorptive permeability across traditional 21 day Caco-2 cell model; details: human
[2] = Absorptive permeability across 7 day fast model; details: human, Caco-2
[3] = cited from earlier work

Papp A→B at 25 μM [1]: 10.7 ± 0.11 ×10⁻⁶ cm/s | Papp A→B at 25 μM [2]: 11.7 ± 0.53 ×10⁻⁶ cm/s
SMILES: COC(=O)C1=C(C)NC(C)=C(C(=O)OC)C1c1ccccc1[N+](=O)[O-] [Nifedipine]
FA (human absorption fraction) [3]: 100%
